{
  "source": "patent US20230157998A1",
  "about": "“Methods of Inhibiting SARS-CoV-2 Replication and Treating Corona Virus Disease 2019” (Pfizer Inc., priority 2020, published 2023)",
  "system": "SARS-CoV-2",
  "assay": "Antiviral activity in HeLa-ACE2 cells (viral protein detection)",
  "type": "cell-based",
  "conditions": "Severe acute respiratory syndrome coronavirus 2, compound alone",
  "data": [
    {"compound": "CCC(CC)COC(=O)[C@H](C)N[P@](=O)(OC[C@H]1O[C@@](C#N)(c2ccc3c(N)ncnn23)[C@H](O)[C@@H]1O)Oc1ccccc1", "note": "[remdesivir, reference compound]", "values": [
      {"measurement": "EC50", "result": 73.9, "unit": "nM"}
    ]}
  ]
}
